{"source": "patent US20080161248A1", "about": "“Methods and Compositions for Therapeutic Treatment” (priority 2006, published 2008)", "experiment": "Pharmacokinetics of FK506 i.v. with Quercetin i.p. in rats", "assay_type": "in vivo, rat", "details": "higher 200 mg/kg quercetin dose i.p.", "method": "Animals: 8-9 weeks-old rats, e.g., Lewis and Brown Norway male rats, can be used. General procedures for animal care and housing are in accordance with the National Research Council (NRC) Guide for the Care and Use of Laboratory Animals (1996) and the Animal Welfare Standards incorporated in 9 CFR Part 3, 1991.\nTreatment: Rats are treated as i.v with FK506 and i.p. with Quercetin at two different concentrations, 500 mg/kg or 200 mg/kg. Subsets of 3 Lewis rats per group are used for blood sampling at each time point (Groups 2-5) at described in the table below.\nPlasma Blood Sample Collection: Whole blood is collected from the retro-orbital sinus under 60:40 CO2:O2 anesthesia using EDTA as the anticoagulant. Sample collection is performed at 9 time points: 5, 15, and 30 min and 1, 2, 4, 6, 8, & 24 hr after administration of FK 506. Three samples were collected from each rat per group (Groups 2-5). The first 2 samples are collected under anesthesia, after which the animal regained consciousness and is retained until the next collection interval. The third/last sample is also collected under anesthesia, however the animal is euthanatized prior to anesthetic recovery.\nWhole blood samples are placed on dry ice after collection and stored frozen at 80° C. […]\nDrug levels are determined in collected samples using bioanalytical methods developed to detect parent drug levels known in the art.", "note": "At least one read-out could not be matched to a standard name with certainty.", "data": [{"smiles": "O=c1c(O)c(-c2ccc(O)c(O)c2)oc2cc(O)cc(O)c12", "note": "[Quercetin, quercetin]", "values": [{"measurement": "effect on AUC of FK 506", "result": "increase"}]}]}
